Among all 200,000 compounds or so, about 25 (0.01%) were called active. The shares of active, inactive and inconclusive entries below differ from those in the screen. Calls come from the whole dose curve; as a rule, active = well fitted inhibition curve with a large enough effect in the signal ratio, with a control signal flat (not every such curve was filed as active); inconclusive = small, poorly fitted or top-dose-only effect, or effect the other way, or a change in a side signal; inactive = flat fitted curve, though single readings scatter; the % refers to the signal ratio. Potencies beside an inconclusive call are fits to weak or partial responses and may not hold up.
assay: qHTS Assay for Modulators of Lamin A Splicing; settings: HeLa LMNA splicing GFP/RFP minigene ratio, 48 h; ratio change, negative = inhibition: at 46.1 µM (top of the series) unless noted
Outline: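 S3 HeLa stable clones carrying a lamin A-EGFP splicing minigene plus DsRed2 were seeded at 600 cells/well in Opti-MEM with 2% FBS, pin-dosed and incubated 48 h at 37°C. Acumen cytometry (488 nm) gave the GFP/RFP total-intensity ratio.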
% is set by controls: 0 for no effect and ±100 for the full control effect; potency is the fitted concentration of half-maximal effect.

| Compound | ratio change, negative = inhibition | Potency |
| --- | --- | --- |
| COc1ccc(OC)c(NC(=O)c2c(NCc3ccc(C)o3)sc3c2CCC(C)C3)c1 (stereo unspecified) | inconclusive: -24.6% [at 46 µM] |  |
| Fc1ccc(-c2nnc(NC3=NCCCCC3)o2)cc1 | inconclusive: 4.86% |  |
| Cc1ccc(CN2CCCn3nc(C(=O)NCCc4ccc(Cl)cc4)cc3C2=O)cc1 | inconclusive: -15.1% [at 46 µM] |  |
| CCNC(=S)N/N=C/c1cn(Cc2ccccc2F)c2ccccc12 | inconclusive: -35.2% |  |
| O=C(NCC(c1cccnc1)N1CCN(Cc2ccccc2)CC1)C(=O)Nc1ccc(Cl)cc1 (stereo unspecified) | inconclusive: -1.75% [at 46 µM] |  |
| O=C1CN(C(=O)c2ccccc2F)c2ccccc2N1 | inactive: 0.916% |  |
| O=C(Cn1c(Cc2ccccc2)nc2ccccc21)NCc1ccc2c(c1)OCO2 | inactive: -11.6% |  |
| Cc1ccc(CCNC(=O)C2CCCN(C(=O)c3cc4sccc4n3C)C2)cc1 (stereo unspecified) |  | inconclusive: 12.6 µM [fluorescent, single point] |
| Nn1c(SCC(=O)N2CCOCC2)nnc1C1CC1 | inconclusive: 4.94% [at 46 µM] |  |
| CC(Sc1nnc(-c2ccc(O)cc2)o1)C(=O)Nc1cccc2ccccc12 (stereo unspecified) | inactive: -5.72% |  |
| O=C(NCc1ccco1)c1cccs1 | inactive: 3.38% |  |
| CCOC(=O)C1CCCN(c2nc3ccccc3nc2C(C#N)C(=O)OCC)C1 (stereo unspecified) | inactive: -5.41% |  |
| CCc1ccccc1NCC(=O)Nc1ccccc1C(=O)OC | inactive: -8.58% |  |
| Cc1sc2ncnc(N3CCC(C(=O)Oc4cccc(Cl)c4Cl)CC3)c2c1C | inconclusive: -2.04% [at 46 µM] |  |
| COc1ccc(CNC(=O)C(C#N)c2nc3ccccc3nc2N2CCCC2)cc1 (stereo unspecified) | inconclusive: -1.76% |  |
| COc1cccc2c1C(=O)c1c(O)c3c(c(O)c1C2=O)C[C@@](O)(C(=O)CO)C[C@@H]3OC1CC(N)C(O)C(C)O1 (stereo partly specified) | inconclusive: -7.3% |  |
| COc1ccccc1OCC(=O)Nc1cccc(-c2nnc(-c3ccco3)o2)c1 | inconclusive: -26.6% [at 46 µM] |  |
| O=C1CC(N2CCN(Cc3ccccc3)CC2)C(=O)N1c1ccccc1 (stereo unspecified) | inactive: 9.32% |  |
| COC(=O)C(Cc1ccccc1)N1CCS(=O)(=O)CC1 (stereo unspecified) | inconclusive: -12.8% [at 46 µM] |  |

Reprinted at random: two records from the list, in no set order.

| Compound | ratio change, negative = inhibition | Potency |
| --- | --- | --- |
| COc1ccc(OC)c(NC(=O)c2c(NCc3ccc(C)o3)sc3c2CCC(C)C3)c1 (stereo unspecified) | inconclusive: -24.6% [at 46 µM] |  |
| COc1ccc(CNC(=O)C(C#N)c2nc3ccccc3nc2N2CCCC2)cc1 (stereo unspecified) | inconclusive: -1.76% |  |

Following part:

| Compound | ratio change, negative = inhibition | Potency |
| --- | --- | --- |
| CCN(CC)[C@@H](C)CN1c2ccccc2Sc2ccccc21 | inactive: -16.2% |  |
| CCN(CC)CCNC1=CC(=O)OC12CCCCC2 | inactive: 3.05% |  |
| CCOc1cc(NC(=O)CCl)c(OCC)cc1NC(C)=O | inconclusive: 72.9% [at 46 µM] |  |
| CCCCCn1c(Sc2ncccn2)nc2c1c(=O)[nH]c(=O)n2C | inactive: -18.4% |  |
| CC(/C=C/c1ccccc1)=N\NC(=O)CNC(=O)c1ccccc1Cl | inconclusive: 5.4% |  |
| O=C(Nc1cccnc1)Nc1ccccc1Cl | inactive: -10.5% |  |
| CC(NC(=O)c1sc2ncccc2c1-n1cccc1)c1ccccc1 (stereo unspecified) | inactive: 2.5% [at 46 µM] |  |
| COc1ccc(C2C=C(c3ccc(Br)cc3)Nc3nc(N4C(=O)CCC4=O)nn32)cc1 (stereo unspecified) | inactive: 6.56% |  |
| COc1cccc2cc(C(=O)N3CCc4ccccc43)c(=O)oc12 | inactive: 3.43% |  |
| COc1ccc(-c2nnc3ccc(SCC(=O)Nc4cc(C)on4)nn23)cc1 | inconclusive: 13.6% [at 9.22 µM] |  |
| O=C(/C=C\c1ccc2c(c1)OCO2)NC1(C(=O)Nc2ccc3c(c2)OCCO3)CCCCC1 | inconclusive: 6.9% |  |
| CC(C)CSC1=NSC2=NC(=O)/C(=C\c3cccs3)C(=N)N12 | inconclusive: -48.3% |  |
| CC1=N/C(=C/c2ccco2)C(=O)O1 | inconclusive: 28.5% [at 9.22 µM] |  |
| O=c1cc(-c2c(F)c(F)c(F)c(F)c2F)oc2c(F)c(F)c(F)c(F)c12 |  | inconclusive: 35.5 µM [falling, single point] |
| O=[N+]([O-])c1ccc(/C=N/Nc2nc(-c3ccccc3)c3cc(Br)ccc3n2)o1 | inactive: 13% |  |
| CCC1(c2ccccc2)C(=O)NCNC1=O | inconclusive: 13.9% |  |
| Cc1cc(SCC(=O)c2cc3ccccc3o2)nc2ccccc12 | inactive: 3.42% |  |
| C=CCSc1nnc(NC(=O)c2cn(CC)c3nc(C)ccc3c2=O)s1 | inconclusive: -9.3% [at 46 µM] |  |
| CC(=O)N[C@H](C(=O)O)C(C)(C)SN=O | inactive: -17.6% |  |

| Compound | ratio change, negative = inhibition | Potency |
| --- | --- | --- |
| O=C(Nc1ccc(-c2nc3ccccc3o2)cc1)c1ccc(N2CCOCC2)c([N+](=O)[O-])c1 | inactive: 20.6% |  |
| O=C(CN(CC1CCCO1)C(=O)CNS(=O)(=O)c1ccc(Cl)cc1)NCC1CCCO1 (stereo unspecified) | inactive: -4.94% |  |
| CCN(CC)CCSc1nnc(Nc2ccccc2)n1-c1ccccc1 | inactive: -8.72% [at 46 µM] |  |
| CCOC(=O)c1nnn(-c2nonc2N)c1-c1cccs1 | inconclusive: 9.67% |  |
| O=C(NCCO)C(=O)NCC(c1ccc2c(c1)OCO2)N1CCOCC1 (stereo unspecified) | inactive: 6.76% [at 46 µM] |  |
| COc1ccccc1NC(=O)Cc1nnc(SCC(=O)Nc2ccccc2F)n1C | inconclusive: -36.9% [at 46 µM] |  |
| O=C(CCS(=O)(=O)c1ccccc1)N(Cc1cccnc1)c1nc2c(F)cccc2s1 | inconclusive: 165% [at 46 µM] |  |
| O=C(NCCc1c[nH]c2ccccc12)C(=O)NCC1OCCCN1S(=O)(=O)c1ccccc1 (stereo unspecified) |  | inconclusive: 15.8 µM [fluorescent, single point] |
| COc1ccccc1C(C)NCC(=O)Nc1ccccc1C(F)(F)F (stereo unspecified) | inactive: -1.54% |  |
| CC(C)CC(O)(CC(C)C)C(=O)NNc1ccccc1 | inconclusive: 11.2% |  |
| Cc1ccccc1NC(=S)N/N=C/C(C)c1ccccc1 (stereo unspecified) | inactive: -0.287% [at 46 µM] |  |
| CCOC(=O)Cc1nn(CC)c(=O)c2ccccc12 | inconclusive: -1.07% [at 46 µM] |  |
| CCN(CC)S(=O)(=O)c1cccc(-c2nnc(SCC(=O)c3ccc(Cl)s3)n2C)c1 | inconclusive: -5.18% |  |
| CCOc1ccccc1NC(=O)N1CC(C)Oc2ccc(Cl)cc21 (stereo unspecified) | inconclusive: 2.92% [at 46 µM] |  |
| O=C(NC(=S)Nc1ccc(Cc2ccncc2)cc1)c1ccccc1 |  | inconclusive: 35.5 µM [falling, single point] |
| CCOC(=O)C1=C(CN(CC)Cc2ccccc2)NC(=O)NC1c1ccc(OC)cc1 (stereo unspecified) | inconclusive: -5.49% [at 46 µM] |  |
| Nc1cc(N2CCOCC2)c(Cl)cc1[N+](=O)[O-] | inconclusive: 23.4% [at 46 µM] |  |
| CCS(=O)(=O)c1ccc2oc(Nc3cc(C)cc(C)c3)nc2c1 | inconclusive: 14.4% |  |

— PubChem BioAssay AID1487 (National Center for Advancing Translational Sciences (NCATS), 2009)
